Laboratory results as given in patent US20190300616A1.
These are yes or no findings as the source states them, for the method shown. Some binding calls cover weakened binding; strength is not graded here.

Sequences of proteins named here, by UniProt entry; tags and fusion partners are left off. Residues count along the entry.
UniProt P35225, residues 35-146: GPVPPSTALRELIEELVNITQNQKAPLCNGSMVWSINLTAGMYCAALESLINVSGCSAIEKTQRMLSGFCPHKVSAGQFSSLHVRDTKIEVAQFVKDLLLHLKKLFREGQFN

Key:
[1] = target: T1, Pngase F-treated rhIL13Rα2hFc (human) (UniProt Q14627); experiment: plate-bound ELISA, Pngase F-treated rhIL13Rα2hFc
T1 sequence (N-linked glycosylation removed with Pngase F under native conditions, looked up): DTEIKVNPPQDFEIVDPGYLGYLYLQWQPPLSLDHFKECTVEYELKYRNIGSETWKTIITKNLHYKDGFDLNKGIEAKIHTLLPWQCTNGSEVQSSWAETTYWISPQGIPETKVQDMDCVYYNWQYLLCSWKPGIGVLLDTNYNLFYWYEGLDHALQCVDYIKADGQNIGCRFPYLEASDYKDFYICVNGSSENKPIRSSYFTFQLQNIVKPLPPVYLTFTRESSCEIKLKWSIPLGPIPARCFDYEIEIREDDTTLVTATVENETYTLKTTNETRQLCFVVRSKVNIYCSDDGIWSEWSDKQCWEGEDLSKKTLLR

[2] = target: T1, Pngase F-treated rhIL13Rα2hFc (human); experiment: plate-bound ELISA, rhIL13Rα2 coated at 1 µg/ml, treated with Pngase F in native buffer
[3] = target: recombinant human IL13Rα2hFc chimera (human) (UniProt Q14627); experiment: competitive plate ELISA, rhIL-13 at 10 ng/ml on plate-bound rhIL13Rα2hFc, detection with a human IL-13 ELISA kit

binding [1]: binds
binding [2]: binds
binding [3]: binds
Substance: recombinant human IL-13 (from UniProt P35225 35-146) (ligand)
